At least one peptide structure holds a part that was inferred or is arguable (an end, a ring closure or a residue). Where a SMILES comes first, the peptide text is derived from it. Bridges are numbered along the chain shown (N, C = ends). Where no end group is shown, it is not given here.
Experiments:
soleus muscles strips = settings: synthetic subpeptides; data not shown
isolated skeletal muscle = experiment: Blocking of the amylin inhibition of insulin-stimulated glycogen synthesis in isolated skeletal muscle (Example 3); assay type: cell-based, rat; settings: blocker 10⁻⁵ mol/L, amylin 2.0 and 0.2 nmol/L, insulin 100 uU/mL
[1] = tested on: isolated islets of Langerhans; experiment: Glucose-stimulated insulin production by isolated islets of Langerhans; assay type: cell-based, rats; settings: isolated rat islet; 10 mmol/L glucose
Description: The following experiments illustrate the fact that subpeptides of amylin can act to reduce the amount of insulin produced by isolated islets of Langerhans in response to a standard glucose challenge. […] All experiments were performed by known methods used in experimental practice. See, e.g., Lacey PE, and Kostianovsky M, Method for the isolation of intact islets of Langerhans from the rat pancreas. Diabetes 1967; 16:35-39.
Briefly, rats were killed, and islets of Langerhans were isolated from their pancreases. Experiments were performed either with freshly isolated islets or after overnight incubation of islets (23 h) in standard culture medium and conditions at 37°C. […]
Production of insulin is expressed as µU/islet/h. […] The integrity of the islet response was assessed by comparing the responses after stimulation of different aliquots of islets by two and ten mmol/L glucose, respectively, and the strength of the inhibitory response was judged against that induced by 1 µg/ml (650 nmol/L) somatostatin. […]
The results are shown in TABLE 5 below and all results are expressed as ± standard error of the mean (s.e.m.). The significance of differences between the means of groups is assessed by the t-test. […] In all other experimental conditions, the significance of the inhibitory effect is measured against the effect of 10 mmol/L glucose alone.

Compound | activity in inhibiting glycogen synthesis (reducing incorporation of radioactive glucose into glycogen) (soleus muscles strips) | difference between insulin stimulated rate of glycogen synthesis and rate with insulin, amylin and blocker (isolated skeletal muscle) | effect of blocker on amylin-inhibited rate of glycogen synthesis (isolated skeletal muscle; inhibitory effect incomplete) | inhibition of glucose stimulated insulin secretion [1]
CC(C)C[C@H](NC(=O)[C@H](Cc1ccccc1)NC(=O)[C@H](CC(N)=O)NC(=O)[C@H](C)NC(=O)[C@H](CC(C)C)NC(=O)[C@H](CCCNC(=N)N)NC(=O)[C@H](CCC(N)=O)NC(=O)[C@@H](NC(=O)[C@H](C)NC(=O)[C@@H]1CSSC[C@H](NC(=O)[C@@H](N)CCCCN)C(=O)N[C@@H](CC(N)=O)C(=O)N[C@@H]([C@@H](C)O)C(=O)N[C@@H](C)C(=O)N[C@@H]([C@@H](C)O)C(=O)N1)[C@@H](C)O)C(=O)O [[3], Amylin 1-16, with the Cys(2)-Cys(7) bridge reformed] (H-KCNTATCATQRLANFL-OH; disulfide 2-7) | significant activity was present |  |  | 
CC(C)C[C@H](NC(=O)[C@H](Cc1ccccc1)NC(=O)[C@H](CC(N)=O)NC(=O)[C@H](C)NC(=O)[C@H](CC(C)C)NC(=O)[C@H](CCCNC(=N)N)NC(=O)[C@H](CCC(N)=O)NC(=O)[C@@H](NC(=O)[C@H](C)NC(=O)[C@H](CS)NC(=O)[C@@H](NC(=O)[C@H](C)NC(=O)[C@@H](NC(=O)[C@H](CC(N)=O)NC(=O)[C@H](CS)NC(=O)[C@@H](N)CCCCN)[C@@H](C)O)[C@@H](C)O)[C@@H](C)O)C(=O)O [[4], Amylin 1-16, reduced] (H-KCNTATCATQRLANFL-OH) | significant activity was present |  |  | 
KSNTATSATQRLANFL [[7], Amylin 1-16 with Ser residues substituted for the Cys residues 2 and 7] | Activity was absent | no significant difference | moved back toward the uninhibited rate | 
LSSTNVGSNTY [[6], Amylin 27-37] | Activity was absent |  |  | potent inhibitor
